According to the supplement of paper PMC12819154, “High-throughput peptide-centric local stability assay extends protein–ligand identification to membrane proteins, tissues and bacteria” (Nature Structural & Molecular Biology, 2025):
The list shows a part of the results. Most entries show no effect beyond the scatter of the controls.

Amino acid sequences for entries named in this document (tags omitted). A change or cut given only in a name is not applied to a line headed by its entry.
UniProt O60568: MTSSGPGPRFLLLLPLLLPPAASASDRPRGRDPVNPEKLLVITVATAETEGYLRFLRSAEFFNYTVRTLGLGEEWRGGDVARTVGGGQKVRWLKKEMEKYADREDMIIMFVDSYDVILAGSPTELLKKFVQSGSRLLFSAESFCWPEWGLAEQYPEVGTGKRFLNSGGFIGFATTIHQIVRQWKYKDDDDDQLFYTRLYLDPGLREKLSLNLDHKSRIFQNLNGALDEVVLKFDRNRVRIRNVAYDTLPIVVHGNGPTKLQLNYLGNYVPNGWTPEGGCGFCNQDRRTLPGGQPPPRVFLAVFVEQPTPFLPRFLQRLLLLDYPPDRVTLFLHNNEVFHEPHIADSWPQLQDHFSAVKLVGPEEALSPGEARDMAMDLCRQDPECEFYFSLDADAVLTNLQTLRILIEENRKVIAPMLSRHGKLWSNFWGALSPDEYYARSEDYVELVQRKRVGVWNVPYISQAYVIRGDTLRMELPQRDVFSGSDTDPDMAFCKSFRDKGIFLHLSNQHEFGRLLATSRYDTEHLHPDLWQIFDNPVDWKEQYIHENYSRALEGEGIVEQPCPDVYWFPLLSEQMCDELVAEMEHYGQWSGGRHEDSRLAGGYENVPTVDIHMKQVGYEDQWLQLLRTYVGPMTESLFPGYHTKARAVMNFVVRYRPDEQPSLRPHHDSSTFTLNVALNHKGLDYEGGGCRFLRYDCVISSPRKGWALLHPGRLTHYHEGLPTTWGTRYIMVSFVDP
UniProt O43776: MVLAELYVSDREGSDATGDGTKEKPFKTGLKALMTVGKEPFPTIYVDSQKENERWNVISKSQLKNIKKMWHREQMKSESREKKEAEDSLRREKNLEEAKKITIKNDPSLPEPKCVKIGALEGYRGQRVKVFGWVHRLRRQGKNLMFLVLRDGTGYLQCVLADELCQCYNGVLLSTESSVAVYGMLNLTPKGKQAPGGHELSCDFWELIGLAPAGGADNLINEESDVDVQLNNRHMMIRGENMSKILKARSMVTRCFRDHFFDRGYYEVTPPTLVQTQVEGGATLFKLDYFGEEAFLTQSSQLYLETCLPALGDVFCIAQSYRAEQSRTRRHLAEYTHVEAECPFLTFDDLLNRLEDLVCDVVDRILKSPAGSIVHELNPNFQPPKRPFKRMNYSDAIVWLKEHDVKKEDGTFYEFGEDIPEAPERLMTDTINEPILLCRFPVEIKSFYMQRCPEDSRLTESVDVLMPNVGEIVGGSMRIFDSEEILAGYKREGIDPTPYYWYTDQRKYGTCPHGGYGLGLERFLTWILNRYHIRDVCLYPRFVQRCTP
UniProt O43678, whole entry: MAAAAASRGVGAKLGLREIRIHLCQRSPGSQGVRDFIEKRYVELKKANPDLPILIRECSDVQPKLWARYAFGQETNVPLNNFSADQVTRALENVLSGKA
UniProt O43159: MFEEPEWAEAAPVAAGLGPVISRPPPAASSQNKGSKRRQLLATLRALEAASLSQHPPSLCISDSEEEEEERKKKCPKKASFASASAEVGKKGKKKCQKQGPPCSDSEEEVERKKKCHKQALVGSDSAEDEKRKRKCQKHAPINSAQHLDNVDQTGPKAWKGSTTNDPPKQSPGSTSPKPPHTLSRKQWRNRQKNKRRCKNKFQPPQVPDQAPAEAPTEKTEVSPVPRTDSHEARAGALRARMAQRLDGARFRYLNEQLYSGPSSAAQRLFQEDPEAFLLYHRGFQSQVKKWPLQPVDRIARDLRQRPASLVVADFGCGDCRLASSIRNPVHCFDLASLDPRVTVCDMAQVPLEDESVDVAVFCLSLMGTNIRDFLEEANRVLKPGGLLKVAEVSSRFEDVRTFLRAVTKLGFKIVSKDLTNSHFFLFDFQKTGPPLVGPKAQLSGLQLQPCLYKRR
UniProt O75056, whole entry: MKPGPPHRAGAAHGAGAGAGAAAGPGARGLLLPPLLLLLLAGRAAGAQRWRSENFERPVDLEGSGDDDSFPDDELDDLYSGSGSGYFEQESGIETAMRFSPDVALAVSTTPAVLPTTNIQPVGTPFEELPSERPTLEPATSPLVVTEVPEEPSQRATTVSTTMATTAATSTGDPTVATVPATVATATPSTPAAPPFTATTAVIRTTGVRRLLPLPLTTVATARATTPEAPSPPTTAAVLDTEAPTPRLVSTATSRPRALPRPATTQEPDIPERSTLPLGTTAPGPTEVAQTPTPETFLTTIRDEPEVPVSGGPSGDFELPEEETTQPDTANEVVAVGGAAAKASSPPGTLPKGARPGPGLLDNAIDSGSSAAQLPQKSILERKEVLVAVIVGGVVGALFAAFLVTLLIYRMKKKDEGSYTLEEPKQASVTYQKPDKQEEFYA
UniProt O60220: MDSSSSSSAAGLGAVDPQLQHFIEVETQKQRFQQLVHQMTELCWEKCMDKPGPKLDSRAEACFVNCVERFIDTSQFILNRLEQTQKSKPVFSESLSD
UniProt O43379: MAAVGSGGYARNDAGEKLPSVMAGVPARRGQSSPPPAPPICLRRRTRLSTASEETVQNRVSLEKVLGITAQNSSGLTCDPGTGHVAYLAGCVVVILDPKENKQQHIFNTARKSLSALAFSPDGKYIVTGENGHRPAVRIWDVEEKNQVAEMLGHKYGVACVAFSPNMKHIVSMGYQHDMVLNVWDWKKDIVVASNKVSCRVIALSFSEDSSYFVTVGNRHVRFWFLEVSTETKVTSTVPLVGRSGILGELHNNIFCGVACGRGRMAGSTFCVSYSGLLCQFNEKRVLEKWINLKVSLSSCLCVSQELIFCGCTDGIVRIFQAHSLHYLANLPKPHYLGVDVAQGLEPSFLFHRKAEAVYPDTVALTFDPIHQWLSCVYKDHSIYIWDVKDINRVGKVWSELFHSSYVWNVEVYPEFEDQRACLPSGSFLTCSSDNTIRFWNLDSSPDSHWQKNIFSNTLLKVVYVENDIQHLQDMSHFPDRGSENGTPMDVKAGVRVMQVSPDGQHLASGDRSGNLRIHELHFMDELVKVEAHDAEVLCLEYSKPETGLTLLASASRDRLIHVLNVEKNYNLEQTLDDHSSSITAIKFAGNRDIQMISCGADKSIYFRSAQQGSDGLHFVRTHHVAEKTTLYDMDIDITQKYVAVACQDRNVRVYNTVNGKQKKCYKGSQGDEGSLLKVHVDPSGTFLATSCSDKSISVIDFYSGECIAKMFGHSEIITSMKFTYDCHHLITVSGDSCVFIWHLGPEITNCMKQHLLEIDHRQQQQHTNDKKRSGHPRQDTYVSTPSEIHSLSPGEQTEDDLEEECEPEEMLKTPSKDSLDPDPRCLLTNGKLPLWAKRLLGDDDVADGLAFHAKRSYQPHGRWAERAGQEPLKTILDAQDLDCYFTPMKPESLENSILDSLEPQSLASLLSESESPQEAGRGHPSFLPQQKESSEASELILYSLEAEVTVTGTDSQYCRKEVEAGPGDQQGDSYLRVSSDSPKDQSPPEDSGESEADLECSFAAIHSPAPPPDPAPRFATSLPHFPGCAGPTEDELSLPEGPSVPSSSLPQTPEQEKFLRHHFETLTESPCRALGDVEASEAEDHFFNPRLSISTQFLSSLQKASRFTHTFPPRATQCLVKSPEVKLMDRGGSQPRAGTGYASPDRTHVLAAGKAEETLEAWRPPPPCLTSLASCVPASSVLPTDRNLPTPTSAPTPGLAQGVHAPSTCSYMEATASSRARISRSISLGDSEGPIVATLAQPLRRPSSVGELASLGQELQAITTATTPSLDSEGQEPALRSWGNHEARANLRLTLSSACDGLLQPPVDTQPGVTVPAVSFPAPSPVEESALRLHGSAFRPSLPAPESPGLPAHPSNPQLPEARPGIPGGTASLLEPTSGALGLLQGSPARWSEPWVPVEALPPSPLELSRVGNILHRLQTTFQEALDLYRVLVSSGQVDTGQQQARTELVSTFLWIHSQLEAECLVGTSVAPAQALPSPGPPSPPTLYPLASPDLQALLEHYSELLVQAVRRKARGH
UniProt O60216: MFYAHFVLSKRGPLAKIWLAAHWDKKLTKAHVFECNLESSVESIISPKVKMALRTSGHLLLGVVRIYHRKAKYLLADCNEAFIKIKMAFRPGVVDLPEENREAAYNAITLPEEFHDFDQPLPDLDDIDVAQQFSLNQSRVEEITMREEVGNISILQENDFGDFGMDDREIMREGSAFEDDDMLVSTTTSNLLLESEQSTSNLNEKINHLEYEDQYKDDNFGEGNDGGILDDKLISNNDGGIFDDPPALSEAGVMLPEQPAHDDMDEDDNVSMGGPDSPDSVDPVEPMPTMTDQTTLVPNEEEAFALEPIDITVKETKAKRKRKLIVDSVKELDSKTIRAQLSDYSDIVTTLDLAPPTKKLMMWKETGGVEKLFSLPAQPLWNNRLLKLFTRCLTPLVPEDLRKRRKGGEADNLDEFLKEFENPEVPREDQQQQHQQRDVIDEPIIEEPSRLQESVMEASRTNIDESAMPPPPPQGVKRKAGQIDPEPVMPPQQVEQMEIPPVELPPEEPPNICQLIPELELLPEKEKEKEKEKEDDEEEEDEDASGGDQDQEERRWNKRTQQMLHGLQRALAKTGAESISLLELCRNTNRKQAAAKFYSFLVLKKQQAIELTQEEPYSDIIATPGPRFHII
UniProt O43572: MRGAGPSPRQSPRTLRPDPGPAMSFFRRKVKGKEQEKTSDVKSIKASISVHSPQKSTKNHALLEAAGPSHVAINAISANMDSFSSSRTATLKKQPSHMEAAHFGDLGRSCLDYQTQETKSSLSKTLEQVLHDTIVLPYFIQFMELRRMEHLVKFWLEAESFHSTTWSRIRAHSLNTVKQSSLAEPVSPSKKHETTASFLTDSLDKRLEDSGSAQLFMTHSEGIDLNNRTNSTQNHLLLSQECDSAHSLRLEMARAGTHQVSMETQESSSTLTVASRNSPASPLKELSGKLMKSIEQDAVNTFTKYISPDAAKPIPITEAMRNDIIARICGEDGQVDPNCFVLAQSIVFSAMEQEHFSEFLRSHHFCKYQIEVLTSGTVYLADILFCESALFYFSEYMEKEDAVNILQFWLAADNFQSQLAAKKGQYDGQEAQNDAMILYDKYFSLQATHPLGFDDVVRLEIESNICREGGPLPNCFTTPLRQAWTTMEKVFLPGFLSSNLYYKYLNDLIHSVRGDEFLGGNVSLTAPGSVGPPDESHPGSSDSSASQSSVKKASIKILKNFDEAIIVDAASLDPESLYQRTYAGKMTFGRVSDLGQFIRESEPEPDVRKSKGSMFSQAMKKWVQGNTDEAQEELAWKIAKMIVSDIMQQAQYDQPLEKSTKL
UniProt O60749: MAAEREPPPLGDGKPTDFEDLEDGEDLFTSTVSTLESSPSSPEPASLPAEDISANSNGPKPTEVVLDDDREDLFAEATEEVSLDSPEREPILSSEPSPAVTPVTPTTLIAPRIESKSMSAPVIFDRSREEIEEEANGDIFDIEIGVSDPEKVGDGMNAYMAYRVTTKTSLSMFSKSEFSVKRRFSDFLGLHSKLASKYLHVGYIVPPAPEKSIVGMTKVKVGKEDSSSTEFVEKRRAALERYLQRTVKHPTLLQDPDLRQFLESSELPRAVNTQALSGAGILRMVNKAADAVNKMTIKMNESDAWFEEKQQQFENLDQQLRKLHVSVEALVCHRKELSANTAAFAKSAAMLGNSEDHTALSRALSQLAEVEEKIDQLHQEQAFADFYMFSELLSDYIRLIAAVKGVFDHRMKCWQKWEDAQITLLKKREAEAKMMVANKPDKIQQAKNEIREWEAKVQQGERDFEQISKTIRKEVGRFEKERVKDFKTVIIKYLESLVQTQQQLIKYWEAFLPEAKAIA
UniProt O60447: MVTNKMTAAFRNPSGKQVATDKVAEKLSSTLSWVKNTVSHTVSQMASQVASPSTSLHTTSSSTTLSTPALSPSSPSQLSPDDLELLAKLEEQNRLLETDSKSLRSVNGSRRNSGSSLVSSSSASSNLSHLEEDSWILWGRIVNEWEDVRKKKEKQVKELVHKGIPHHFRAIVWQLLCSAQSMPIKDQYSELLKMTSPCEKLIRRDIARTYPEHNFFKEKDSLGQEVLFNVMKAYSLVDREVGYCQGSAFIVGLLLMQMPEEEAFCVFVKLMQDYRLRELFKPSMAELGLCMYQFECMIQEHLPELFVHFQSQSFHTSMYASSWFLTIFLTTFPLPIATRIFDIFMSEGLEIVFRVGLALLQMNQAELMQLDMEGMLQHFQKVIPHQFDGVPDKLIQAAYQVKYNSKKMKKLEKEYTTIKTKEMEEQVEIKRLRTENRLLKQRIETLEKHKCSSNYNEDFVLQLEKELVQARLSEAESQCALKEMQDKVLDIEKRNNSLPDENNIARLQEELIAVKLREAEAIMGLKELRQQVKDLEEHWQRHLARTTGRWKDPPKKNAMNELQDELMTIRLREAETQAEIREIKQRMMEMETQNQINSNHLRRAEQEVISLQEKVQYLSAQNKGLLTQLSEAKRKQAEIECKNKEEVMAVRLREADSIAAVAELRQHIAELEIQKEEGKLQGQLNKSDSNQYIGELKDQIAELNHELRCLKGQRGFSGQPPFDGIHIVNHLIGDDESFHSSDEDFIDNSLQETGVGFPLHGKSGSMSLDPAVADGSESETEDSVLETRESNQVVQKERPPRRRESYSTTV

Compound: Cc1nc(Nc2ncc(C(=O)Nc3c(C)cccc3Cl)s2)cc(N2CCN(CCO)CC2)n1 [dasatinib]
Experiment: log2 fold change of tryptic peptide abundance, ligand vs vehicle (limited proteolysis) (log2 ratio); higher = more trypsin-susceptible (destabilized)
Details: ligand concentration: 5 uM; sample: K562 cleared lysate

With “PLOD3 (peptide sequence: TLGLGEEWR, peptide start residue: 68) (UniProt O60568)” as the target, how does the log2 fold change read?
Its log2 fold change is 0.221.

With “HIP1R (peptide sequence: QREADLLAAQSLVR, peptide start residue: 565) (UniProt O75146)” as the target, how does the log2 fold change read?
Its log2 fold change is -0.179.

Which log2 fold change does the source give for “UniProt O43776 (peptide sequence: SPAGSIVHELNPNFQPPKRPFK, peptide start residue: 368)” here?
Its log2 fold change is 0.392.

For “NDUFA2 (peptide sequence: ANPDLPILIR, peptide start residue: 47) (UniProt O43678)”, which log2 fold change is on record?
The log2 fold change was 0.0637.

For “ENTPD6 (peptide sequence: ETPTLTHETFK, peptide start residue: 126) (UniProt O75354)”, which log2 fold change is on record?
The log2 fold change was -0.363.

With “UGDH (peptide sequence: YIEACAR, peptide start residue: 108) (UniProt O60701)” as the target, how does the log2 fold change read?
The log2 fold change was 0.198.

For “UniProt O43159 (peptide sequence: KWPLQPVDR, peptide start residue: 290)”, which log2 fold change is on record?
The log2 fold change was -0.419.

“CDC40 (peptide sequence: QEEEKPGEEK, peptide start residue: 229) (UniProt O60508)” was tested. Which log2 fold change did it give?
The log2 fold change was 0.535.

Which log2 fold change does the source give for “CAND2 (peptide sequence: QEFEKQDELKR, peptide start residue: 1164) (UniProt O75155)” here?
Its log2 fold change is 0.145.

Which log2 fold change does the source give for “SDC3 (peptide sequence: ALPRPATTQEPDIPER, peptide start residue: 258) (UniProt O75056)” here?
Its log2 fold change is -0.191.

With “MRPS14 (peptide sequence: KMAYEYADER, peptide start residue: 42) (UniProt O60783)” as the target, how does the log2 fold change read?
The log2 fold change was 0.113.

With “UniProt O43432 (peptide sequence: RRPGVQR, peptide start residue: 1023)” as the target, how does the log2 fold change read?
Its log2 fold change is -0.694.

Which log2 fold change does the source give for “TIMM8A (peptide sequence: SKPVFSESLSD, peptide start residue: 87) (UniProt O60220)” here?
Its log2 fold change is 0.0192.

For “UniProt O75419 (peptide sequence: SNLDKLYHGLELAK, peptide start residue: 407)”, which log2 fold change is on record?
Its log2 fold change is -0.125.

How did the log2 fold change turn out when “WDR62 (peptide sequence: LIHVLNVEK, peptide start residue: 560) (UniProt O43379)” was run?
The log2 fold change was -0.896.

Which log2 fold change does the source give for “UniProt O60341 (peptide sequence: IKPLPTKK, peptide start residue: 270)” here?
The log2 fold change was -0.139.

How did the log2 fold change turn out when “RGS10 (peptide sequence: KRPPSDIHDSDGSSSSSHQSLK, peptide start residue: 12) (UniProt O43665)” was run?
The log2 fold change was 0.253.

How did the log2 fold change turn out when “RAD21 (peptide sequence: RKGGEADNLDEFLK, peptide start residue: 405) (UniProt O60216)” was run?
Its log2 fold change is 0.247.

Which log2 fold change does the source give for “NOL3 (peptide sequence: GEAACQELLR, peptide start residue: 69) (UniProt O60936)” here?
The log2 fold change was 0.0762.

For “ROCK2 (peptide sequence: IELQMTLDSK, peptide start residue: 1103) (UniProt O75116)”, which log2 fold change is on record?
The log2 fold change was 0.151.

For “UniProt O60502 (peptide sequence: YTKPNGDKELSEAEK, peptide start residue: 805)”, which log2 fold change is on record?
The log2 fold change was 0.171.

With “ACTN4 (peptide sequence: ICDQWDALGSLTHSRR, peptide start residue: 498) (UniProt O43707)” as the target, how does the log2 fold change read?
Its log2 fold change is 0.164.

How did the log2 fold change turn out when “PEX1 (peptide sequence: KLHSYGR, peptide start residue: 198) (UniProt O43933)” was run?
The log2 fold change was 0.546.

For “AKAP10 (peptide sequence: GSMFSQAMKK, peptide start residue: 612) (UniProt O43572)”, which log2 fold change is on record?
Its log2 fold change is -0.844.

Which log2 fold change does the source give for “SNX2 (peptide sequence: HPTLLQDPDLR, peptide start residue: 249) (UniProt O60749)” here?
The log2 fold change was -0.122.

How did the log2 fold change turn out when “MSH5 (peptide sequence: GKEVSDLIR, peptide start residue: 771) (UniProt O43196)” was run?
The log2 fold change was -0.198.

With “EVI5 (peptide sequence: VLDIEKR, peptide start residue: 488) (UniProt O60447)” as the target, how does the log2 fold change read?
Its log2 fold change is -0.238.
